Experimental data published in publication PMC10163027, “Coordinated regulation of vegetative phase change by brassinosteroids and the age pathway in Arabidopsis” (Nature Communications, 2023).
Read-outs that look alike come from different tables or passages of the source. No constants are given. Whether binding was seen depends on the method and setting. For some of these results: In cells and extracts the contact can be indirect. Some binding calls cover weakened binding; strength is not graded here. Sequences can lack the tags named with a protein. Each block holds one molecule with its values, some of them ahead of it.

Protein sequences, listed by entry. Tags and fused reporters are not part of them.
UniProt Q9SK03: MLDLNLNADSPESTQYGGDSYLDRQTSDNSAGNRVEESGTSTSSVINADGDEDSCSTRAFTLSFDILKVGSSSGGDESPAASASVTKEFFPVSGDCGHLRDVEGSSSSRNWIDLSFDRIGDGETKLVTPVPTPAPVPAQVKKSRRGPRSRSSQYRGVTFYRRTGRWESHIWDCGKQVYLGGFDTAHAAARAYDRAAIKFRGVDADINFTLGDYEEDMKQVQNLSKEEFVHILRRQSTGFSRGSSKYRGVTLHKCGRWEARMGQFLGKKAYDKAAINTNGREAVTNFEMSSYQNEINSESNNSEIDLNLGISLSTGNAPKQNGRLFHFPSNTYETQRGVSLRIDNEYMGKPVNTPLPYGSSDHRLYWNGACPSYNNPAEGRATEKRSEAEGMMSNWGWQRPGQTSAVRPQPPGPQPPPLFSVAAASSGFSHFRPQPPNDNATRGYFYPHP

Legend:
[1] = biological target: T1, BRASSINOSTEROID …2 (BIN2), yeast two-hybrid fusion (Arabidopsis) (UniProt Q39011); assay: two-hybrid; GAL4 system, yeast strain AH109; co-transformants from DDO (SD/-Leu/-Trp) tested for growth on QDO (SD/-Leu/-Trp/-Ade/-His)
T1 sequence: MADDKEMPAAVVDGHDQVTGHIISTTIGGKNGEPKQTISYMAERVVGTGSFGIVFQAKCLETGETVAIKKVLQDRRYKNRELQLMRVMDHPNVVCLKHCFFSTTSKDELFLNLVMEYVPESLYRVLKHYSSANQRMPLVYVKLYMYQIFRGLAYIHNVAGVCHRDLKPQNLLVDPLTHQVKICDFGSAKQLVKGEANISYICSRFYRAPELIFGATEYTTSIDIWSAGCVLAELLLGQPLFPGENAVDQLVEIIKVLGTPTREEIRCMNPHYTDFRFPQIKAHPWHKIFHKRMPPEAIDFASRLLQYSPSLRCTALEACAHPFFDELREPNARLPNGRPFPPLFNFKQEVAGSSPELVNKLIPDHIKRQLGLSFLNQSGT

BIN2-cYFP (Arabidopsis) [2] = biological target: T2, BIN2-cYFP (Arabidopsis) (UniProt Q39011); assay: split reporter; BiFC with nYFP and cYFP fusions co-transformed into WT Arabidopsis protoplasts (PEG-mediated), 12-16 h, confocal microscopy; YFP signal in nuclei
T2 sequence: T1 sequence

[3] = biological target: T1, BRASSINOSTEROID …2 (BIN2), yeast two-hybrid fusion (Arabidopsis); assay: two-hybrid; GAL4 system, yeast strain AH109; co-transformants from DDO (SD/-Leu/-Trp) tested for growth on QDO (SD/-Leu/-Trp/-Ade/-His); remark: listed apart in the source
BIN2-cYFP (Arabidopsis) [4] = biological target: T2, BIN2-cYFP (Arabidopsis); assay: split reporter; BiFC with nYFP and cYFP fusions co-transformed into WT Arabidopsis protoplasts (PEG-mediated), 12-16 h, confocal microscopy; YFP signal in nuclei; remark: listed apart in the source

Molecule: TOE1-nYFP (from UniProt Q9SK03 1-449)
binding (BIN2-cYFP (Arabidopsis) [2]): binds

B2: SPL9-nYFP (protein, UniProt Q700W2 1-375)
chain: MEMGSNSGPGHGPGQAESGGSSTESSSFSGGLMFGQKIYFEDGGGGSGSSSSGGRSNRRVRGGGSGQSGQIPRCQVEGCGMDLTNAKGYYSRHRVCGVHSKTPKVTVAGIEQRFCQQCSRFHQLPEFDLEKRSCRRRLAGHNERRRKPQPASLSVLASRYGRIAPSLYENGDAGMNGSFLGNQEIGWPSSRTLDTRVMRRPVSSPSWQINPMNVFSQGSVGGGGTSFSSPEIMDTKLESYKGIGDSNCALSLLSNPHQPHDNNNNNNNNNNNNNNTWRASSGFGPMTVTMAQPPPAPSQHQYLNPPWVFKDNDNDMSPVLNLGRYTEPDNCQISSGTAMGEFELSDHHHQSRRQYMEDENTRAYDSSSHHTNWSL
binding (BIN2-cYFP (Arabidopsis) [4]): binds

Continued, values first:

binding [1]: binds
Molecule: TARGET OF EAT1 (TOE1), yeast two-hybrid fusion (from UniProt Q9SK03 1-449)

binding [3]: binds
B1: SQUAMOSA PROMOTER BINDING PROTEIN-LIKE 9 (SPL9), yeast two-hybrid fusion (protein, UniProt Q700W2 1-375)
chain: B2 chain
